Binding screen against folded nucleic acids

Source: the ROBIN nucleic acid binder screens (doi:10.1002/anie.202211358).

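Compounds were printed on reactive glass slides in duplicate spots, a dye-labelled oligonucleotide was laid over them, and the fluorescence left after washing was read. For the PreQ1, TPP and SAM-II riboswitches the laboratory earlier reported (doi:10.1038/s41467-019-09493-3) 1 µM RNA, 2 h, and a rule that included a mean Z-score above 3 (spot signal-to-noise against the whole library), a score well above that on a control array, and duplicate spots agreeing (coefficient of variation under 100). The data file gives only the calls; its cut-offs may differ, and compounds hitting several targets are kept. These are primary screening calls, not affinities; a compound without a hit may have attached poorly or may still bind in solution.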
Key: hit = hit, none = tested without a hit.
Compounds were drawn at random from those tested, without regard to their results.
A target missing from an entry has no call listed here.

Targets (5′ to 3′):
T1: PreQ1 riboswitch RNA pseudoknot, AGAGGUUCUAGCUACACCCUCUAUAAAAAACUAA. From B. subtilis. About 170 hits among about 24,000 compounds.
T2: SAM-II riboswitch RNA pseudoknot, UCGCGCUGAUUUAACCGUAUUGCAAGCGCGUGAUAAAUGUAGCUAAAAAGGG. About 200 hits among about 21,000 compounds.
T3: TPP riboswitch RNA three-way junction, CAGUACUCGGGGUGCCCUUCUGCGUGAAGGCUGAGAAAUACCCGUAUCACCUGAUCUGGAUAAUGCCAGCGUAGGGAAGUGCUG. About 160 hits among about 24,000 compounds.

compound: O=C(CCn1c(CO)nc2ccccc21)NCc1cc(-c2ccccc2)on1
T1: none
T2: none
T3: none

compound: Cl.OC12CC3CC(C1)CC(NCc1ccc4c(c1)OCCO4)(C3)C2
T1: none
T2: none
T3: none

compound: COc1cc2ncnc(Nc3cc(Br)c(O)c(Br)c3)c2cc1OC
T1: none
T2: none
T3: none

compound: COC1OC(O)C(NC(=O)C(F)(F)F)CC1O (centres undefined)
T1: none
T2: none
T3: none

compound: c1csc(-c2nc3ncccn3c2Nc2ccc3c(c2)OCCO3)c1
T1: none
T2: none
T3: none

compound: Cc1nc(CC(=O)N2CC[C@@H](NC(=O)c3cnccn3)[C@H](O)C2)cs1
T1: none
T2: none
T3: none

compound: Cc1ccc(C(O)CN2C3=NCCCN3c3ccccc32)cc1 (centres undefined)
T1: none
T2: none
T3: none

compound: CN(CCC(=O)Nc1cccnc1)CCC(O)c1ccccc1 (centres undefined)
T1: none
T2: none
T3: none

compound: CCCCNc1cc(C)nc2c(C)c(-c3ccccc3)nn12
T1: none
T3: none

compound: Cc1noc(N)c1C(=O)Nc1ccc(F)c(Cl)c1
T1: none
T2: none
T3: none

compound: Cc1ccccc1NC1c2ccccc2C(=O)N1Cc1ccccc1 (centres undefined)
T1: none
T2: none
T3: none

compound: CC(=O)CC(c1ccccc1)c1c(O)c2ccccc2oc1=O (centres undefined)
T1: none
T2: none
T3: none

compound: CCOC(=O)c1sc2nc(C)nc(Nc3ccc(C)c(F)c3)c2c1C
T1: none
T2: none
T3: none

compound: Nc1cc(N2CCCC(c3[nH]ncc3Cc3ccccc3)C2)ncn1 (centres undefined)
T1: none
T2: none
T3: none

compound: O=S1(=O)C=CC(NC2CCN(c3nc4ccccc4o3)CC2)C1 (centres undefined)
T1: none
T2: none
T3: none

compound: O=C1c2ccccc2C(=O)c2cc(OCC(O)Cn3cnc4ccccc43)ccc21 (centres undefined)
T1: none
T2: none
T3: none

compound: Cc1cc(OCC(O)CNC(C)c2ccccc2)ccc1C(C)C.Cl (centres undefined)
T1: none
T2: none
T3: none

compound: Cc1ccc(Cl)c(C(=O)N2CC[C@H](N3CCN(C)CC3)[C@H](CCCO)C2)c1
T1: none
T2: none
T3: none

compound: CSc1ccc(C2C(C#N)=C(N)Oc3c2ccc(=O)c2c(C)oc(C)c32)cc1 (centres undefined)
T1: none
T2: none
T3: none

compound: CC1(C)C2CCC(CNC(=N)CSS(=O)(=O)O)C1C2 (centres undefined)
T1: none
T2: none
T3: none

compound: CCOC(=O)N1CCC(NCc2noc(-c3ccco3)n2)CC1
T1: none
T2: none
T3: none

compound: COc1cccc(-c2cnc(NCc3ccc(C)cc3)n2C)c1
T1: none
T2: none
T3: none

compound: Nc1cc(=O)[nH]c(SCC(=O)N2CCN(c3ccccc3)CC2)n1
T1: none
T3: none

compound: Nc1c(-c2nc(-c3ccc(Cl)cc3)no2)nnn1-c1ccccc1
T1: none
T3: none

3 of the entries, repeated:

compound,T1,T2,T3
CCOC(=O)N1CCC(NCc2noc(-c3ccco3)n2)CC1,none,none,none
CC1(C)C2CCC(CNC(=N)CSS(=O)(=O)O)C1C2 (centres undefined),none,none,none
CN(CCC(=O)Nc1cccnc1)CCC(O)c1ccccc1 (centres undefined),none,none,none